The text below walks through data of paper PMC11434141.

No constants are given. Whether binding was seen depends on the method and setting. Binding seen in cells or lysates may run through a third protein. Binding can be weak; no strength is given. Tags and fused reporters may be left off the sequences shown.

For the assay, the target named is basic-helix-loop-helix-S/T (bHLH-S/T) of SRC-1, GST fusion. Briefly: pull-down; GST-fused full-length or fragmented protein on GST-beads, incubated overnight at 4 °C with recombinant protein expressed by 293T cells; Western blot; only the target purified.

B1: IRF1, tagged, expressed in 293T cells (protein, UniProt P10914 1-325)
chain: MPITRMRMRPWLEMQINSNQIPGLIWINKEEMIFQIPWKHAAKHGWDINKDACLFRSWAIHTGRYKAGEKEPDPKTWKANFRCAMNSLPDIEEVKDQSRNKGSSAVRVYRMLPPLTKNQRKERKSKSSRDAKSKAKRKSCGDSSPDTFSDGLSSSTLPDDHSSYTVPGYMQDLEVEQALTPALSPCAVSSTLPDWHIPVEVVPDSTSDLYNFQVSPMPSTSEATTDEDEEGKLPEDIMKLLEQSEWQPTNVDGKGYLLNEPGVQPTSVYGDFSCKEEPEIDSPGGDIGLSLQRVFTDLKNMDATWLDSLLTPVRLPSIQAIPCAP
For B1, the binding entry is recorded as “binds”.
